{
  "source": "patent US8304401B2",
  "about": "“Compositions and methods for decreasing type III deiodinase activity to modulate adiposity and blood glucose levels” (Trustees of Dartmouth College, priority 2008, dated 2012)",
  "origin": "cited, not measured here",
  "key": {"[1]": {"tested_on": "D3", "details": "BVS-1 cells, preincubation overnight; cited from earlier work"}, "[2]": {"tested_on": "D3", "details": "cited from earlier work"}},
  "note": "At least one structure is not confirmed: it was looked up by name or label, or the drawing left a doubt.",
  "data": [
    {"smiles": "C[C@@H]1C[C@H]2[C@@H]3CCC4=CC(=O)C=C[C@]4(C)[C@@]3(F)[C@@H](O)C[C@]2(C)[C@@]1(O)C(=O)CO", "note": "[dexamethasone]", "values": [
      {"measurement": "decrease of basal D3 activity", "setting": "[1]", "result": 80, "unit": "%"},
      {"measurement": "effect on D3-inducing effects of basic FGF", "setting": "[1]", "result": "completely blocks"},
      {"measurement": "hepatic and renal D3 activity", "setting": "[2]; acute or chronic treatment of neotenic axolotls", "result": "decrease hepatic and renal D3 activity in a dose-dependent manner"},
      {"measurement": "gill length, tail height, and body weight", "setting": "[2]; all treated axolotls", "result": "clear reduction in gill length, tail height, and body weight"}
    ]}
  ]
}
